Laboratory results: the supplement of paper PMC5949888
Most values lie at the floor of the assay. Slopes are relative: functional sequences can read slightly below zero.

Each substance was assayed on Saccharomyces cerevisiae PS128 hsf1 delta, HSF1(1-493) fusion (assay: growth estimate (transactivation domain function in HSF1 fusion, heat-shock survival) (a.u. (slope of normalised read count over time)); higher = stronger growth at 37°C, i.e. more transactivation activity). Details: library: random library.

Substance	growth estimate
LYPKAVRS	< -0.25
CRLWSIRLLAFGKRQARVIR	< -0.25
RCLRCSLASTVAGVPNLD	< -0.25
TSRTPLHLSVL	< -0.25
LMARQVT	< -0.25
FGLRTDWDGCWNPKVRSPQN	< -0.25
AEHGLLSGTSTMLAQFPHSK	< -0.25
DIVTHLF	< -0.25
RQCCRLCASKCTDQYADPAF	< -0.25
LGLAIEFGCGGFAGTYRSLV	< -0.25
LDP	< -0.25
SVGGVAVTLTRHRPHLVVPG	< -0.25
FSSCLGPPGKIVA	< -0.25
CLSSRECENCSLSSPAYSGQ	< -0.25
RVLRRPRYPRGRSNPAVGSE	< -0.25
DEGAPDPALR	< -0.25
WFLGRRTHTLTPTPARAART	< -0.25
RRTRVSTMTCDLGVSRCLGA	< -0.25
AARDQY	< -0.25
VMGA	< -0.25
GGAHELLYMSHGKPM	< -0.25
LSESIRFRFVHVPPSRPVPP	< -0.25
LAIFVKEPTLTIRTARLRAG	< -0.25
MVVANPQSMTGVVIFGSWAA	< -0.25
PLDGE	< -0.25

A few values from the results shown.
In growth estimate, DIVTHLF has < -0.25
In growth estimate, PLDGE has < -0.25

Next records.

Substance	growth estimate
NGTSIGRVKAILNPQDGVQM	< -0.25
SHNQVDIQRRVTAISRRLLT	< -0.25
GSTESDRCKLQVSRATGVQH	< -0.25
GEGEICGISIKSVLAILVIV	< -0.25
VISGQRPGTQGGITK	< -0.25
EYLSCYPQELLLNAPMRRRG	< -0.25
EDHPLLSIRMGVVIPLSSNR	< -0.25
LAIRYVDRKTRDKPLWLNLR	< -0.25
GDCDGGILCVLALG	< -0.25
YARGLLT	< -0.25
QMV	-0.25
PGFPRRHTLPFPELLVG	< -0.25
ITIRVSLCRWL	< -0.25
SLMTCRRLVGRG	< -0.25
YRCTRILQNSDPPSKFNIKS	< -0.25
SLRQRSLQTSSSTRFHNGSA	< -0.25
FRGGVMSVAP	< -0.25
SSEPRLGSTNRCDSSDRIPA	< -0.25
RNYSGQLQKKVSGSASQGAA	< -0.25
SMVGCWAAIRKS	< -0.25
DLF	< -0.25
YGRRPIGSVCPENDASPGAA	< -0.25
QPPTPLVVFLINGSIVSDTL	< -0.25
AWVSCRDAETQLERRYGCHL	< -0.25
SLCLWEYN	< -0.25

Substance	growth estimate
GYILVL	< -0.25
YFLVIPWA	< -0.25
LPLGFMQSRS	< -0.25
ISWL	< -0.25
RRFRRHEHCVQFLGPSRVPR	-0.246
SYCP	< -0.25
PRLDRCNDTVLGLHTTVSGR	< -0.25
LFQLVQIIFRGPGTWVSALK	< -0.25
HFRVIQEAP	< -0.25
FAVGGDDLQCALSGLTGSLL	< -0.25
EHALCSLSNRLREWATQVAS	< -0.25
FVNKYIRHNRLN	< -0.25
VRVFNPEVRLKTLGYLN	< -0.25
FLHRMS	< -0.25
STAPNIGRRLGAYCLLVRMI	< -0.25
AHVTGRDLGVRIDVPFV	< -0.25
GLDSLRCEVS	< -0.25
IAMQF	< -0.25
VDFLPGYARRGKGLVIDPRY	< -0.25
GTHERGWSPQLAPSDSVSLS	< -0.25
GHRCKERGIFLTGR	< -0.25
YRPPKYLR	< -0.25
MTIAIYED	< -0.25
HRERKTSLRVSLNETLHRRG	< -0.25
DFCKSREKAVCIRPDI	< -0.25

Substance	growth estimate
NSRRWT	< -0.25
IGGACWGY	< -0.25
LISVTG	< -0.25
CSGWARLVASDSLQAPRPGY	< -0.25
THLFQVRWLTSHNEGAVVMS	< -0.25
KWYLQSI	< -0.25
GRSCSKAGLKAKLDCGRRDL	< -0.25
RDKRLRSSSSSARPPRPTTE	< -0.25
GRRLEAITIEGDLVNDFYVL	< -0.25
RLAPAVASVPEWIRSQDLKC	< -0.25
KSELDIAEQFDTNTVASGDV	< -0.25
CIHTWAPESMSESGSNLPGT	< -0.25
KVRGKARFLKAENVTNGEVR	< -0.25
YRTEDLGQQLIGFGRMWHWE	< -0.25
GSSRPLTKFATRDPPTQLNR	< -0.25
GGVWQKMLIVRLTLLGLGLR	< -0.25
NLGGRKLLARLRIRRDVLRN	< -0.25
TRLGGFSMESVRMTQATGAH	< -0.25
GMGILVSGSEVPKPFLNGTP	< -0.25
IWTHNGLLQLVL	< -0.25
HLNIWRLTVLGQSSRGPSSG	< -0.25
HNQPSV	< -0.25
DDFR	< -0.25
PRGEYVWPRAEDETGREGVR	< -0.25
